Results: article PMC11564117
No constants are given. Whether binding was seen depends on the method and setting.

The chains behind the UniProt entries cited, without tags or fusion partners.
UniProt Q13137: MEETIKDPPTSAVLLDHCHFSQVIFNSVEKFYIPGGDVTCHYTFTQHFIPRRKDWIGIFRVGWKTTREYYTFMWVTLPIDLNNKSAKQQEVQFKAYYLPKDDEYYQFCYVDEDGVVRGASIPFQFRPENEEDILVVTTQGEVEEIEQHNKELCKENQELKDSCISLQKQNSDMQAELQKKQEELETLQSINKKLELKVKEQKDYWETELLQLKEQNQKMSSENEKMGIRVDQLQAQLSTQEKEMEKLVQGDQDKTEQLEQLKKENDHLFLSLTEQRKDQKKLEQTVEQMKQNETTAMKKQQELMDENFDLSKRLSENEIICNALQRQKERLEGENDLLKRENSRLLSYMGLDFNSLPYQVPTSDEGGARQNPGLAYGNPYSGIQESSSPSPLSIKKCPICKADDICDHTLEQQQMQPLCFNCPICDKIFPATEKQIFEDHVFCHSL

Molecular target: NAP1 delta-NDP52 (S37K/A44E), bait of the bead assay (human) (UniProt Q9H6S1)
Test: microscopy-based bead assay; Extended Data Fig. 3b: NAP1 wild type or point mutants on beads; NDP52–mCherry, FIP200–GFP and mCherry–TBK1 250 nM; 1 h; confocal imaging; both purified

mCherry–NDP52 (from UniProt Q13137 1-446)
binding: no binding (tested: 250 nM)
